Results are given in words; binding and its absence hold for the method and conditions named. Binding can be weak; no strength is given. For some assays here: Tags and fused reporters may be left off the sequences shown. For some assays here: Binding seen in cells or lysates may run through a third protein.
Experiments:
[1] = biological target: T1, GST–rNLRP1 FIIND (wild type) (rat) (UniProt D9I2G3); assay: pull-down; GST fusion held on GS4B resin, incubated with an excess of purified DPP9 on ice for 60 min, washed five times with 10 mM Tris pH 8.0, 100 mM NaCl, eluted with GSH; SDS–PAGE with Coomassie staining; also with or without VbP; both purified
T1 sequence: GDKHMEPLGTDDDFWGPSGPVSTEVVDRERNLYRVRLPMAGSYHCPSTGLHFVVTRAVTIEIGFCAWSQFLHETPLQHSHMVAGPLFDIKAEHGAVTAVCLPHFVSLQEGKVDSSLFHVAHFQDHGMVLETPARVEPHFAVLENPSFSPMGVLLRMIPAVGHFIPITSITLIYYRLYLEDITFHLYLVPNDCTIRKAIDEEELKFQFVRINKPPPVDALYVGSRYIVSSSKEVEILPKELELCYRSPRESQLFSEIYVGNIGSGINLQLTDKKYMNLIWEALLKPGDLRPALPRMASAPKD

[2] = biological target: T2, Flag-tagged rNLRP1 (rat) (UniProt D9I2G3); assay: co-IP; lysates of transfected 293T cells collected 48 h post transfection, anti-Flag immunoprecipitation, immunoblot
T2 sequence: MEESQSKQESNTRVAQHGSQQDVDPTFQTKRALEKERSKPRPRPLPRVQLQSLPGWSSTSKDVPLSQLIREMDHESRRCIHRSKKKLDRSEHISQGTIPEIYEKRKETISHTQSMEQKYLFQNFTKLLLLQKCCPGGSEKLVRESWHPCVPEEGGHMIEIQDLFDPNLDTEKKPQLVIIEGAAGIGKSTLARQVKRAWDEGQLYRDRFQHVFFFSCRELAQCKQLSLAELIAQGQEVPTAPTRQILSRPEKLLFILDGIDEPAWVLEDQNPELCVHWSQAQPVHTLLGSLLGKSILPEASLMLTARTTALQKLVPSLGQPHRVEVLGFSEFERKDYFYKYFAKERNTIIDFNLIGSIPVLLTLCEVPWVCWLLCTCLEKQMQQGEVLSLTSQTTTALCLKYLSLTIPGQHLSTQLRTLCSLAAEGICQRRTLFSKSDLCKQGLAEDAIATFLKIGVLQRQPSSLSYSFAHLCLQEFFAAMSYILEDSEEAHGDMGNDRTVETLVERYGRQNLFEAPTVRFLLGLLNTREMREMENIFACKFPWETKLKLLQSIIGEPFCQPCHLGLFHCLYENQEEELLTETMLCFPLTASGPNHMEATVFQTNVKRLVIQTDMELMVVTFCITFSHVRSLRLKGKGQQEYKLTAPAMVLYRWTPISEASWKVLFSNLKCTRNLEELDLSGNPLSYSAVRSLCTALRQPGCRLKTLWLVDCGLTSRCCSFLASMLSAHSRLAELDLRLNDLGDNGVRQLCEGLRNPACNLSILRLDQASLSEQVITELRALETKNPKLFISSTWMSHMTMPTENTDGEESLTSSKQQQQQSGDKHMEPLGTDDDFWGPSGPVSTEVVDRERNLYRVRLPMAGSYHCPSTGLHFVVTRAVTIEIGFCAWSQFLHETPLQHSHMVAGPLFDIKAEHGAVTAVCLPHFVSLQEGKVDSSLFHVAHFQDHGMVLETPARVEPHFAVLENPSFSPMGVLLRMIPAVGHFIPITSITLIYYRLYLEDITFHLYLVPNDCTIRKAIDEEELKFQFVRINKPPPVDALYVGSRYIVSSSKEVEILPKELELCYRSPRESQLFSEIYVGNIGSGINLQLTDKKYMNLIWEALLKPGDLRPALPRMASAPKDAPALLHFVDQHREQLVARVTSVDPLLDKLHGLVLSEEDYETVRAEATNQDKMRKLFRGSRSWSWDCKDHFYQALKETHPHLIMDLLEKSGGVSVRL

[3] = biological target: rat DPP9 (rat); assay: cryo-EM structure; purified complex after gel filtration, about 0.3 mg/ml in 25 mM Tris-HCl pH 8.0, 150 mM NaCl, 3 mM DTT; Titan Krios 300 kV; both purified
[4] = biological target: preformed GST–rNLRP1 FIIND(S969A)–rDPP9 complex (rat); assay: SEC; Superose 6 10/30, 10 mM Tris pH 8.0, 100 mM NaCl; purified GST–rNLRP1 FIIND(S969A)–rDPP9 complex incubated with fully processed rNLRP1 FIIND at a molar ratio of about 1:1 at 4 °C for 150 min; both purified

rat DPP9 (enzyme)
binding [1]: binds

Myc-tagged rDPP9 (rat) (enzyme)
binding [2]: binds

B1: rNLRP1 FIIND–CARD(S969A) (domain or fragment, UniProt D9I2G3 822-1218)
chain: GDKHMEPLGTDDDFWGPSGPVSTEVVDRERNLYRVRLPMAGSYHCPSTGLHFVVTRAVTIEIGFCAWSQFLHETPLQHSHMVAGPLFDIKAEHGAVTAVCLPHFVSLQEGKVDSSLFHVAHFQDHGMVLETPARVEPHFAVLENPSFAPMGVLLRMIPAVGHFIPITSITLIYYRLYLEDITFHLYLVPNDCTIRKAIDEEELKFQFVRINKPPPVDALYVGSRYIVSSSKEVEILPKELELCYRSPRESQLFSEIYVGNIGSGINLQLTDKKYMNLIWEALLKPGDLRPALPRMASAPKDAPALLHFVDQHREQLVARVTSVDPLLDKLHGLVLSEEDYETVRAEATNQDKMRKLFRGSRSWSWDCKDHFYQALKETHPHLIMDLLEKSGGVSVRL
binding [3]: binds

B2: rNLRP1 FIIND (residues 822-1122), autoprocessed (domain or fragment, UniProt D9I2G3 822-968; D9I2G3 969-1122)
chain 1: GDKHMEPLGTDDDFWGPSGPVSTEVVDRERNLYRVRLPMAGSYHCPSTGLHFVVTRAVTIEIGFCAWSQFLHETPLQHSHMVAGPLFDIKAEHGAVTAVCLPHFVSLQEGKVDSSLFHVAHFQDHGMVLETPARVEPHFAVLENPSF
chain 2: SPMGVLLRMIPAVGHFIPITSITLIYYRLYLEDITFHLYLVPNDCTIRKAIDEEELKFQFVRINKPPPVDALYVGSRYIVSSSKEVEILPKELELCYRSPRESQLFSEIYVGNIGSGINLQLTDKKYMNLIWEALLKPGDLRPALPRMASAPKD
binding [4]: binds

B3: full-length rat NLRP1 (natural protein, UniProt D9I2G3 1-1218, looked up)
chain: MEESQSKQESNTRVAQHGSQQDVDPTFQTKRALEKERSKPRPRPLPRVQLQSLPGWSSTSKDVPLSQLIREMDHESRRCIHRSKKKLDRSEHISQGTIPEIYEKRKETISHTQSMEQKYLFQNFTKLLLLQKCCPGGSEKLVRESWHPCVPEEGGHMIEIQDLFDPNLDTEKKPQLVIIEGAAGIGKSTLARQVKRAWDEGQLYRDRFQHVFFFSCRELAQCKQLSLAELIAQGQEVPTAPTRQILSRPEKLLFILDGIDEPAWVLEDQNPELCVHWSQAQPVHTLLGSLLGKSILPEASLMLTARTTALQKLVPSLGQPHRVEVLGFSEFERKDYFYKYFAKERNTIIDFNLIGSIPVLLTLCEVPWVCWLLCTCLEKQMQQGEVLSLTSQTTTALCLKYLSLTIPGQHLSTQLRTLCSLAAEGICQRRTLFSKSDLCKQGLAEDAIATFLKIGVLQRQPSSLSYSFAHLCLQEFFAAMSYILEDSEEAHGDMGNDRTVETLVERYGRQNLFEAPTVRFLLGLLNTREMREMENIFACKFPWETKLKLLQSIIGEPFCQPCHLGLFHCLYENQEEELLTETMLCFPLTASGPNHMEATVFQTNVKRLVIQTDMELMVVTFCITFSHVRSLRLKGKGQQEYKLTAPAMVLYRWTPISEASWKVLFSNLKCTRNLEELDLSGNPLSYSAVRSLCTALRQPGCRLKTLWLVDCGLTSRCCSFLASMLSAHSRLAELDLRLNDLGDNGVRQLCEGLRNPACNLSILRLDQASLSEQVITELRALETKNPKLFISSTWMSHMTMPTENTDGEESLTSSKQQQQQSGDKHMEPLGTDDDFWGPSGPVSTEVVDRERNLYRVRLPMAGSYHCPSTGLHFVVTRAVTIEIGFCAWSQFLHETPLQHSHMVAGPLFDIKAEHGAVTAVCLPHFVSLQEGKVDSSLFHVAHFQDHGMVLETPARVEPHFAVLENPSFSPMGVLLRMIPAVGHFIPITSITLIYYRLYLEDITFHLYLVPNDCTIRKAIDEEELKFQFVRINKPPPVDALYVGSRYIVSSSKEVEILPKELELCYRSPRESQLFSEIYVGNIGSGINLQLTDKKYMNLIWEALLKPGDLRPALPRMASAPKDAPALLHFVDQHREQLVARVTSVDPLLDKLHGLVLSEEDYETVRAEATNQDKMRKLFRGSRSWSWDCKDHFYQALKETHPHLIMDLLEKSGGVSVRL
notes: rat NLRP1, residues 1-1218, gene synthesized from GenBank HM060632.1; Autocleaves in the FIIND between F968 and S969; of the second copy only UPA is seen, and the abstract calls it a UPA-CARD fragment; also called rNLRP1; full-length rNLRP1; source: sf21 insect cells (baculovirus), co-expressed with rDPP9, purified (GS4B, PreScission, gel filtration); not shown: GST, N-terminal, cleaved
binding [3]: binds
